# Source: the supplement of paper PMC8728848
# Some of the results follow.
# Legend:
# Experiment in all cases: glycan array binding signal (z-score within array); higher = stronger binding
# Conditions in all cases: glycan notation: IUPAC condensed, linker removed
# [1] = target: Fuc(a1-2)Gal(b1-4)GlcNAc(b1-3)Gal(b1-4)GlcNAc(b1-3)Gal(b1-4)GlcNAc
# In short: (§1)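 The binding signal is a Z-score computed within each array. Data were drawn from 3228 arrays in the Consortium for Functional Glycomics database, restricted to those with a known protein sequence. Scores were averaged over arrays of the same protein sequence at different concentrations or buffers, and over linkers, and negative values can be taken as non-binding.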
# [2] = target: Fuc(a1-2)Gal(b1-4)GlcNAc(b1-3)GalNAc
# In short: as §1
# [3] = target: Fuc(a1-2)Gal(b1-4)GlcNAc(b1-3)[Fuc(a1-2)Gal(b1-4)GlcNAc(b1-6)]GalNAc
# In short: as §1
# [4] = target: Fuc(a1-2)Gal(b1-4)GlcNAc(b1-3)[Fuc(a1-3)[Gal(b1-4)]GlcNAc(b1-6)]Gal(b1-4)Glc
# In short: as §1
# [5] = target: Fuc(a1-2)Gal(b1-4)GlcNAc(b1-6)GalNAc
# In short: as §1
# [6] = target: Fuc(a1-2)Gal(b1-4)GlcNAc6S
# In short: as §1
# [7] = target: Fuc(a1-2)Gal(b1-4)[Fuc(a1-3)]GlcNAc
# In short: as §1
# [8] = target: Fuc(a1-2)Gal(b1-4)[Fuc(a1-3)]GlcNAc(b1-2)Man(a1-3)[Fuc(a1-2)Gal(b1-4)[Fuc(a1-3)]GlcNAc(b1-2)Man(a1-6)]Man(b1-4)GlcNAc(b1-4)[Fuc(a1-6)]GlcNAc
# In short: as §1
# [9] = target: Fuc(a1-2)Gal(b1-4)[Fuc(a1-3)]GlcNAc(b1-2)[Fuc(a1-2)Gal(b1-4)[Fuc(a1-3)]GlcNAc(b1-4)]Man(a1-3)[Fuc(a1-2)Gal(b1-4)[Fuc(a1-3)]GlcNAc(b1-2)Man(a1-6)]Man(b1-4)GlcNAc(b1-4)GlcNAc
# In short: as §1
# [10] = target: Fuc(a1-2)Gal(b1-4)[Fuc(a1-3)]GlcNAc(b1-3)Gal(b1-4)[Fuc(a1-3)]GlcNAc
# In short: as §1
# [11] = target: Fuc(a1-2)Gal(b1-4)[Fuc(a1-3)]GlcNAc(b1-3)Gal(b1-4)[Fuc(a1-3)]GlcNAc(b1-3)Gal(b1-4)[Fuc(a1-3)]GlcNAc
# In short: as §1
# [12] = target: Fuc(a1-2)Gal(b1-4)[Fuc(a1-3)]GlcNAc(b1-3)GalNAc
# In short: as §1
# [13] = target: Fuc(a1-2)Gal(b1-4)[Fuc(a1-3)]GlcNAc(b1-3)[Neu5Ac(a2-6)Gal(b1-4)GlcNAc(b1-6)]Gal(b1-4)Glc
# In short: as §1
# [14] = target: Fuc(a1-2)Gal3S(b1-4)GlcNAc
# In short: as §1
# [15] = target: Fuc(a1-2)Gal6S(b1-3)GlcNAc
# In short: as §1
# [16] = target: Fuc(a1-2)Gal6S(b1-3)GlcNAc6S
# In short: as §1
# Fuc(a1-2)Gal6S(b1-4)Glc = target: Fuc(a1-2)Gal6S(b1-4)Glc
# In short: as §1
# [17] = target: Fuc(a1-2)Gal6S(b1-4)Glc6S
# In short: as §1
# Fuc(a1-2)[Gal(a1-3)]Gal = target: Fuc(a1-2)[Gal(a1-3)]Gal
# In short: as §1
# [18] = target: Fuc(a1-2)[Gal(a1-3)]Gal(b1-3)GalNAc
# In short: as §1
# [19] = target: Fuc(a1-2)[Gal(a1-3)]Gal(b1-3)GalNAc(b1-3)Gal(a1-4)Gal(b1-4)Glc
# In short: as §1
# [20] = target: Fuc(a1-2)[Gal(a1-3)]Gal(b1-3)GlcNAc
# In short: as §1
# [21] = target: Fuc(a1-2)[Gal(a1-3)]Gal(b1-3)GlcNAc(b1-2)Man(a1-3)[Fuc(a1-2)[Gal(a1-3)]Gal(b1-3)GlcNAc(b1-2)Man(a1-6)]Man(b1-4)GlcNAc(b1-4)GlcNAc
# In short: as §1
# [22] = target: Fuc(a1-2)[Gal(a1-3)]Gal(b1-3)GlcNAc(b1-2)Man(a1-3)[Fuc(a1-2)[Gal(a1-3)]Gal(b1-3)GlcNAc(b1-2)Man(a1-6)]Man(b1-4)GlcNAc(b1-4)[Fuc(a1-6)]GlcNAc
# In short: as §1
# [23] = target: Fuc(a1-2)[Gal(a1-3)]Gal(b1-3)GlcNAc(b1-3)GalNAc
# In short: as §1
# [24] = target: Fuc(a1-2)[Gal(a1-3)]Gal(b1-3)GlcNAc(b1-6)GalNAc
# In short: as §1
# [25] = target: Fuc(a1-2)[Gal(a1-3)]Gal(b1-4)Glc
# In short: as §1
# [26] = target: Fuc(a1-2)[Gal(a1-3)]Gal(b1-4)GlcNAc
# In short: as §1
# [27] = target: Fuc(a1-2)[Gal(a1-3)]Gal(b1-4)GlcNAc(b1-2)Man
# In short: as §1
# [28] = target: Fuc(a1-2)[Gal(a1-3)]Gal(b1-4)GlcNAc(b1-2)Man(a1-3)[Fuc(a1-2)[Gal(a1-3)]Gal(b1-4)GlcNAc(b1-2)Man(a1-6)]Man(b1-4)GlcNAc(b1-4)GlcNAc
# In short: as §1
binder,measurement,setting,value
SP15308F-bth-333-19-333 (Bacteroides thetaiotaomicron) (protein) SCNNEWESEQYVQMVSFKAPVNAQGVTPIYIRYKPEGKVTYQLPLIVSGSTMNSKDLNVHVGLDLDTLDVLNVEHFGSRKELFFKPLENKYYEFPETVQIPAGECTSLLPIDFALKDLDQVDKWVLPLAIQSNDPSHNYQANPRKFYRRAMLRISPFNDYSGQYSATAYKVYFKGNEKEAIVPEYHTSYVIDDKTIFFYAGLIDIDRLDRKYYKIKFEFTEEKIDLQTRKLKISSDNEDINLVVKGQPSYTVEEEMDATRPYLKHIYVTINNLEYEFTDYTSVPGYPLEYVVKGSLTMERKINTQIPDEDQAIEW,glycan array binding signal (z-score),[1],-0.564
same,glycan array binding signal (z-score),[2],0.057
same,glycan array binding signal (z-score),[3],-0.209
same,glycan array binding signal (z-score),[4],1.11
same,glycan array binding signal (z-score),[5],0.404
same,glycan array binding signal (z-score),[6],-0.295
same,glycan array binding signal (z-score),[7],0.294
same,glycan array binding signal (z-score),[8],1.17
same,glycan array binding signal (z-score),[9],1.01
same,glycan array binding signal (z-score),[10],-1.32
same,glycan array binding signal (z-score),[11],1.93
same,glycan array binding signal (z-score),[12],0.625
same,glycan array binding signal (z-score),[13],0.582
same,glycan array binding signal (z-score),[14],0.542
same,glycan array binding signal (z-score),[15],-0.207
same,glycan array binding signal (z-score),[16],0.343
same,glycan array binding signal (z-score),Fuc(a1-2)Gal6S(b1-4)Glc,0.449
same,glycan array binding signal (z-score),[17],0.065
same,glycan array binding signal (z-score),Fuc(a1-2)[Gal(a1-3)]Gal,1.17
same,glycan array binding signal (z-score),[18],0.458
same,glycan array binding signal (z-score),[19],-0.184
same,glycan array binding signal (z-score),[20],-0.498
same,glycan array binding signal (z-score),[21],-1.19
same,glycan array binding signal (z-score),[22],0.961
same,glycan array binding signal (z-score),[23],-0.841
same,glycan array binding signal (z-score),[24],-0.634
same,glycan array binding signal (z-score),[25],-0.801
same,glycan array binding signal (z-score),[26],-1.2
same,glycan array binding signal (z-score),[27],-0.613
same,glycan array binding signal (z-score),[28],-0.477

# Part of the list above in a different format:
binder	measurement	setting	value
SP15308F-bth-333-19-333 (Bacteroides thetaiotaomicron) (protein) SCNNEWESEQYVQMVSFKAPVNAQGVTPIYIRYKPEGKVTYQLPLIVSGSTMNSKDLNVHVGLDLDTLDVLNVEHFGSRKELFFKPLENKYYEFPETVQIPAGECTSLLPIDFALKDLDQVDKWVLPLAIQSNDPSHNYQANPRKFYRRAMLRISPFNDYSGQYSATAYKVYFKGNEKEAIVPEYHTSYVIDDKTIFFYAGLIDIDRLDRKYYKIKFEFTEEKIDLQTRKLKISSDNEDINLVVKGQPSYTVEEEMDATRPYLKHIYVTINNLEYEFTDYTSVPGYPLEYVVKGSLTMERKINTQIPDEDQAIEW	glycan array binding signal (z-score)	Fuc(a1-2)Gal6S(b1-4)Glc	0.449
same	glycan array binding signal (z-score)	[17]	0.065
